Experimental data: PubChem BioAssay AID504771 (Drosophila RNAi Screening Center, 2011)

Aim: 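Fly cell regulators of aggregate formation by polyglutamine huntingtin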 (follow-up of hits)
Cell system: Drosophila S2 cells with copper-inducible mutant huntingtin exon 1 (46 glutamines)-eGFP
Reagent: long dsRNA against Drosophila genes, 250 ng dsRNA per well
Duration: 3 days of knock-down, then 2 days of copper induction before fixing
Treatment: copper sulfate at 400 µM to switch on Htt-Q46-eGFP expression
Read-out: 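Per-well count, size and brightness of GFP aggregates from automated images, set against plate mean and SD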
Hit rule: 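Primary hit when aggregate count, size or brightness differed from plate mean by over 2 SD; called active only after clearing every validation step (off-target, repeat, second dsRNA, promoter counter-screen)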
Meaning of the calls: active = confirmed modifier; inactive = primary candidate not confirmed
The reagents shown are a selection, not the whole library. 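All genes were primary candidates; inactive means validation failed, not no effect; aggregate scores behind calls are not deposited.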 Reagents against one gene are numbered here. A plus sign joins genes that one reagent is predicted to hit.

| gene knocked down | reagent | aggregation phenotype | Outcome |
| --- | --- | --- | --- |
| Got1 | 1 | knock-down lowers aggregates | active |
| CG4294 | 1 | knock-down lowers aggregates | active |
| RpL12 | 1 | knock-down lowers aggregates | inactive |
| bab1 | 1 | knock-down lowers aggregates | inactive |
| CG33695 + cana | 1 | knock-down lowers aggregates | inactive |
| betaTub56D | 1 | knock-down lowers aggregates | active |
| CRIF | 1 | knock-down lowers aggregates | inactive |
| MED26 | 1 | knock-down lowers aggregates | inactive |
| MED26 | 2 | knock-down lowers aggregates | inactive |
| IntS11 | 1 | knock-down raises aggregates | active |
| ras | 1 | knock-down lowers aggregates | inactive |
| cv-c | 1 | knock-down raises aggregates | inactive |
| 14-3-3epsilon | 1 | knock-down lowers aggregates | active |
| CG5808 | 1 | knock-down lowers aggregates | inactive |
| Dis3 | 1 | knock-down lowers aggregates | inactive |
| C15 | 1 | knock-down raises aggregates | inactive |
| mRpS9 | 1 | knock-down lowers aggregates | inactive |
| Mtr3 | 1 | knock-down lowers aggregates | inactive |
| Rpn8 | 1 | knock-down lowers aggregates | inactive |
| Atx2 | 1 | knock-down lowers aggregates | active |
| Taf5 | 1 | knock-down raises aggregates | inactive |
| RpS9 | 1 | knock-down lowers aggregates | inactive |
| CG13675 | 1 | knock-down lowers aggregates | inactive |
| Rpt1 | 1 | knock-down lowers aggregates | inactive |
| Cdk9 | 1 | knock-down lowers aggregates | inactive |
| rl | 1 | knock-down lowers aggregates | inactive |
| Taf10b | 1 | knock-down raises aggregates | inactive |
| Tpt + mkg-p | 1 | knock-down lowers aggregates | inactive |
| CkIIalpha | 1 | knock-down lowers aggregates | active |
| mTor | 1 | – | active |
| CG13185 | 1 | knock-down lowers aggregates | inactive |
| ND-MNLL | 1 | knock-down raises aggregates | inactive |
| CG7394 | 1 | knock-down raises aggregates | inactive |
| Sf3b2 | 1 | knock-down lowers aggregates | active |
| Taf6 | 1 | knock-down raises aggregates | inactive |
| Nup358 | 1 | knock-down lowers aggregates | active |
| Nipped-A | 1 | knock-down raises aggregates | active |
| Polr2C | 1 | knock-down lowers aggregates | inactive |
| Rrp46 | 1 | knock-down lowers aggregates | inactive |
| Jra | 1 | knock-down raises aggregates | active |
| CG11019 (retired record) | 1 | knock-down lowers aggregates | inactive |
| IntS1 | 1 | knock-down raises aggregates | inactive |
| Pfk | 1 | knock-down raises aggregates | active |
| nonC | 1 | – | active |
| CkIIbeta | 1 | knock-down lowers aggregates | active |
| mute | 1 | knock-down raises aggregates | inactive |
| CG12499 | 1 | knock-down lowers aggregates | inactive |
| beta'COP | 1 | knock-down lowers aggregates | inactive |
| Rpt5 | 1 | knock-down lowers aggregates | active |
| RpL6 | 1 | knock-down lowers aggregates | inactive |
| RpL6 | 2 | knock-down lowers aggregates | inactive |
| Tbp | 1 | knock-down lowers aggregates | inactive |
| Tbp | 2 | knock-down lowers aggregates | inactive |
| Pp1-13C | 1 | knock-down lowers aggregates | inactive |
| RpL35A | 1 | knock-down lowers aggregates | inactive |
| Cyt-c1 | 1 | knock-down lowers aggregates | inactive |
| CG18367 | 1 | knock-down raises aggregates | inactive |
| Rpn1 | 1 | knock-down lowers aggregates | active |
| Vha68-2 | 1 | knock-down may raise aggregates | inactive |
| MED24 | 1 | knock-down lowers aggregates | inactive |
| RpL38 | 1 | knock-down lowers aggregates | inactive |
| CG15080 | 1 | knock-down lowers aggregates | inactive |
| mRpL13 | 1 | knock-down lowers aggregates | inactive |
| ND-30 | 1 | knock-down lowers aggregates | inactive |
| LSm3 | 1 | knock-down raises aggregates | inactive |

Copied from the list.
CG5808, aggregation phenotype = knock-down lowers aggregates
Under “Outcome”, CG7394 has inactive
CG15080, Outcome: inactive
Value for ND-MNLL under “Outcome”: inactive
Result of RpL38 in “aggregation phenotype”: knock-down lowers aggregates
For “aggregation phenotype”, CG4294 reads knock-down lowers aggregates

Continued:
| gene knocked down | reagent | aggregation phenotype | Outcome |
| --- | --- | --- | --- |
| MTF-1 | 1 | knock-down lowers aggregates | inactive |
| MTF-1 | 2 | knock-down lowers aggregates | inactive |
| RpL8 | 1 | knock-down lowers aggregates | inactive |
| RpL8 | 2 | knock-down lowers aggregates | inactive |
| chb | 1 | knock-down lowers aggregates | inactive |
| CG31386 (retired record) | 1 | knock-down raises aggregates | inactive |
| Vha36-1 | 1 | knock-down raises aggregates | inactive |
| M1BP | 1 | knock-down lowers aggregates | inactive |
| Prosbeta4 | 1 | knock-down lowers aggregates | inactive |
| CG17168 | 1 | knock-down lowers aggregates | inactive |
| Rca1 | 1 | knock-down raises aggregates | inactive |
| RpS12 | 1 | knock-down lowers aggregates | inactive |
| RpL5 | 1 | knock-down lowers aggregates | inactive |
| RpS18 | 1 | knock-down lowers aggregates | inactive |
| Nop56 | 1 | knock-down lowers aggregates | inactive |
| Rpn3 | 1 | knock-down lowers aggregates | active |
| Sec23 | 1 | knock-down lowers aggregates | active |
| SMC2 | 1 | knock-down lowers aggregates | inactive |
| Polr2K | 1 | knock-down lowers aggregates | inactive |
| Nup98-96 | 1 | knock-down lowers aggregates | active |
| Nup98-96 | 2 | knock-down lowers aggregates | inactive |
| CG5359 | 1 | knock-down raises aggregates | inactive |
| IntS3 | 1 | knock-down raises aggregates | inactive |
| Vha16-1 | 1 | knock-down raises aggregates | inactive |
| cactin | 1 | knock-down lowers aggregates | active |
| Rcc1 | 1 | knock-down lowers aggregates | inactive |
| CG9775 | 1 | knock-down lowers aggregates | active |
| CG11583 | 1 | knock-down lowers aggregates | active |
| RpL19 | 1 | knock-down lowers aggregates | inactive |
| Klp61F | 1 | knock-down lowers aggregates | active |
| Rrp4 | 1 | knock-down lowers aggregates | inactive |
| Arf4 | 1 | knock-down lowers aggregates | active |
| alph | 1 | knock-down raises aggregates | active |
| gammaCOP | 1 | knock-down lowers aggregates | inactive |
| CycE | 1 | knock-down raises aggregates | inactive |
| CycE | 2 | knock-down raises aggregates | inactive |
| UQCR-C2 | 1 | knock-down lowers aggregates | inactive |
| Polr3B | 1 | knock-down lowers aggregates | inactive |
| Madm | 1 | – | active |
| MED25 | 1 | knock-down lowers aggregates | inactive |
| MED25 | 2 | knock-down lowers aggregates | inactive |
| CG31743 + CG34313 | 1 | knock-down lowers aggregates | inactive |
| RpS13 | 1 | knock-down lowers aggregates | inactive |
| beat-Vb | 1 | knock-down raises aggregates | inactive |
| tau | 1 | knock-down raises aggregates | inactive |
